For 36 compounds, cell number change and AC50 results are on record in PubChem BioAssay AID2685 (National Center for Advancing Translational Sciences (NCATS), 2010).

Some of the results follow. Further columns of the screen follow, without active or inactive calls. Most of these compounds were active or inconclusive in the main read-out, so they are no random draw. The note in brackets gives the kind of curve behind each potency; many fits are weak.

In general, AC50 refers to the midpoint of the concentration-response curve, whichever way the signal moves. Read a high AC50 as activity only at high concentration.

The experiment can be described thus: qHTS Assay for Lipid Storage Modulators in Drosophila S3 Cells.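 As to cell number change: cells counted by Cell Tracker Red CMTPX staining in the red channel.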 The settings on record: BODIPY lipid droplet fluorescence, 18-24 h; for cell number change: measured here: cell count max response, cells fed with added oleic acid. In short, it runs like this:
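Drosophila S3 cells loaded with oleic acid (400 uM, as added) and compounds at several concentrations; lipid droplets imaged by 488-nm laser-scanning cytometry, 500–530 nm intensity and object ratio to cell channel. Percent activity normalized to 20 uM Triacsin C.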
(qHTS replaces the single test concentration by a dilution series.)

Setting [1] is: measured here: lipid fluorescence (Fed channel) AC50, cells fed with added oleic acid.
The mark [2] stands for this setting: measured here: cell number channel AC50, cells fed with added oleic acid.

As to `Cc1ccc(NC(=O)CCNC(=O)c2ccccc2Cl)nc1`, the cell number change came out at 21.8%. Under setting [1], the half-maximal activity concentration (AC50) is 23.1 µM [rising, single point].
Turning to `CC(=O)c1ccc(NC(=O)CN2CCC(C(=O)c3ccc(F)cc3)CC2)cc1`, the cell number change is 21.8%. Also, the AC50 under setting [1] is 29.1 µM [rising, single point].
For the compound `Cn1nc(-c2ccc(C(=O)N3CCN(CCO)CC3)cc2)c2ccccc2c1=O`, the AC50 under setting [1] is 6.51 µM [falling, partial curve, poor fit].
Consider `CCN(CC(=O)NCc1cccs1)C(=O)CCCOc1ccc(C(C)(C)C)cc1`, for which the cell number change was -30.9%. Also, under setting [2], the concentration at half-maximal activity (AC50) was 29.1 µM [falling, single point].
On to `O=C(NCc1ccc(F)cc1)c1cccc(S(=O)(=O)N2CCOCC2)c1`, for which the cell number change is -0.648%. For the same compound, the AC50 under setting [1] is 0.00461 µM [falling, full curve, poor fit].
`O=C(NC1CCCC1)C(c1ccncc1)N(C(=O)Cc1cccs1)c1ccc(F)cc1` (stereo not given): the half-maximal activity concentration (AC50) under setting [1] was 2.06 µM [falling, partial curve].
Regarding `COc1cc(C)ccc1OCc1cc(C(=O)N(Cc2c(C)nn(C)c2C)C2CC2)no1`, the cell number change came out at 3.05%.
As to `CC(=O)OCC1OC(Nc2cccc(C)c2)C(OC(C)=O)C(OC(C)=O)C1OC(C)=O` (stereo not given), the cell number change was 8.82%. Also, the AC50 under setting [2] is 6.51 µM [falling, single point]. The AC50 under setting [1] is 6.51 µM [falling, single point].
On to `CC(C)c1ccc(N(C(=O)c2csnn2)C(C(=O)NC(C)(C)C)c2cccnc2)cc1` (stereo not given), for which the cell number change was -133%. For the same compound, the AC50 under setting [2] was 29.1 µM [falling, single point]. Moreover, under setting [1], the AC50 is 29.1 µM [falling, partial curve].
As for `Cc1nc(-c2ccccn2)nc(SCC(=O)c2ccccc2)c1Cl`, the cell number change worked out at 46.3%. Further, the AC50 under setting [2] was 1.16 µM [rising, full curve, poor fit]. Moreover, the concentration at half-maximal activity (AC50) under setting [1] was 6.51 µM [rising, single point].
On to `CCOc1ncccc1C(=O)OCC(=O)N1CCc2ccccc21`, for which the concentration at half-maximal activity (AC50) under setting [1] is 4.11 µM [falling, single point].
For `CC1(C)CC2CC(C)(CN2C(=O)C23CCC(C)(C(=O)O2)C3(C)C)C1` (stereo not given), the cell number change was -3.66%. The half-maximal activity concentration (AC50) under setting [1] was 3.66 µM [rising, full curve].
In the case of `Cc1cccc(NC(=S)NC2CCCC2)c1C`, the cell number change was 16.6%. In addition, the concentration at half-maximal activity (AC50) under setting [1] was 2.59 µM [falling, full curve, poor fit].
With `O=c1nc(/C=C/c2ccc(O)c(O)c2)oc2ccccc12`, the cell number change is -12%. Further, the AC50 under setting [2] was 0.058 µM [falling, full curve, poor fit]. For the same compound, under setting [1], the concentration at half-maximal activity (AC50) was 0.103 µM [falling, full curve, poor fit].
On to `COCCNC(=O)CN1CCN(C(c2ccccc2)c2ccccc2)CC1`, for which the cell number change is -54.5%. For the same compound, under setting [2], the half-maximal activity concentration (AC50) is 32.6 µM [falling, single point].
As to `COc1ccccc1CNc1ncccn1`, the cell number change was -8.03%.
As for `CCN(CC)C(=O)CSc1nc2sc3c(c2c(=O)n1CCOC)CCC3`, the cell number change stood at 6.74%. In addition, the AC50 under setting [1] is 1.84 µM [rising, partial curve].
As for `CCOCCCNC(=O)C(c1ccc(OC)cc1)N(Cc1cccs1)C(=O)CNC(C)=O` (stereo not given), the AC50 was 5.8 µM [rising, partial curve] under setting [2] and 6.51 µM [rising, single point] under setting [1].
`O=C(CC12CC3CC(CC(C3)C1)C2)N1CCCC1`: the cell number change is -59.9%. In addition, under setting [2], the concentration at half-maximal activity (AC50) is 20.6 µM [falling, single point]. Further, the concentration at half-maximal activity (AC50) under setting [1] was 0.82 µM [rising, partial curve, poor fit].
Turning to `CS(=O)(=O)c1ccc(Cl)c(NC(=O)COC(=O)c2cccc(S(=O)(=O)N3CCCC3)c2)c1`, the cell number change turned out to be 84.3%. The concentration at half-maximal activity (AC50) under setting [2] was 29.1 µM [rising, single point]. Moreover, under setting [1], the concentration at half-maximal activity (AC50) was 29.1 µM [rising, single point].
Regarding `COC(=O)C1=C(C)Nc2sc(C(N)=O)c(N)c2C1c1ccncc1` (stereo not given), the cell number change was determined as 41.1%. Also, the AC50 under setting [2] is 29.1 µM [rising, single point]. Further, the half-maximal activity concentration (AC50) under setting [1] was 8.2 µM [rising, partial curve].
Regarding `CS(=O)(=O)c1cnc(-c2ccccc2)nc1-c1ccc(Cl)c(Cl)c1`, the cell number change turned out to be 118%. Besides, the half-maximal activity concentration (AC50) under setting [2] is 29.1 µM [rising, partial curve]. Moreover, the AC50 under setting [1] is 20.6 µM [rising, partial curve].
On to `COc1ccc(NC(=O)CC2C(=O)N(C)C(=S)N2Cc2cccs2)cc1` (stereo not given), for which the cell number change stood at 16.7%. Under setting [2], the half-maximal activity concentration (AC50) was 0.731 µM [rising, partial curve, poor fit]. The half-maximal activity concentration (AC50) under setting [1] was 20.6 µM [rising, single point].
As to `CCOc1ccccc1N(C(=O)c1ccco1)C(C(=O)NC1CCCC1)c1cccs1` (stereo not given), the cell number change was -19.2%.
`CC(C)[C@H](NC(=O)N1CCn2c1nc1ccccc12)C(=O)NCc1ccccc1Cl`: the cell number change is -0.806%. For the same compound, the AC50 under setting [1] was 2.06 µM [rising, partial curve].
Regarding `Cc1ccc(O)c(C(=O)CC(=O)c2cccc(F)c2)c1`, the cell number change is -36.9%. Further, under setting [2], the AC50 is 29.1 µM [falling, single point].
In the case of `COc1ccccc1C(=O)Nc1ccc2oc(-c3ccc(F)cc3)nc2c1`, the cell number change is -54.7%. The AC50 under setting [2] is 29.1 µM [falling, single point].
Consider `CC(Sc1nnc(NC2CCCCC2)s1)C(=O)N1CCOCC1` (stereo not given), for which the cell number change came to 1.34%. Further, the concentration at half-maximal activity (AC50) under setting [1] was 23.1 µM [falling, partial curve].
With `C=CCn1c(SCC(=O)N2CCCCCC2)nc2ccccc2c1=O`, the cell number change turned out to be 19.2%.
`COc1cc(/C=C(/C#N)c2ccccc2F)ccc1OCc1ccccc1`: the cell number change is -2.88%. The AC50 under setting [1] was 18.4 µM [falling, partial curve].
In the case of `CC(O)c1n(C)c(Cl)c[n+]1C` (stereo not given), the cell number change worked out at 6.51%. Further, the AC50 under setting [1] is 18.4 µM [falling, single point].
Take `CC(=O)Nc1ccc(Oc2ccc([N+](=O)[O-])cc2Cl)cc1`: the cell number change was -3.39%. Also, the half-maximal activity concentration (AC50) under setting [1] is 0.00461 µM [falling, full curve, poor fit].
For the compound `COc1ccc(C2C=C(Nc3ccccc3)C(=O)N2c2ccccc2)cc1OC` (stereo not given), the cell number change is -18.9%. Besides, under setting [2], the AC50 was 1.3 µM [falling, full curve, poor fit].
As to `O=C(NCc1ccc2c(c1)OCO2)C(=O)NC1CCCCC1`, the cell number change is 31.1%.
Consider `Cc1ccc2c(c1)N(C(C)C(=O)NCCc1ccccc1)C(=O)CO2` (stereo not given), for which the cell number change worked out at 46.6%. Under setting [2], the AC50 is 11.6 µM [rising, partial curve]. Besides, the AC50 under setting [1] is 0.731 µM [rising, full curve].
With `Cc1csc(N2CCCC2=O)n1`, the cell number change is 29.6%. Besides, the AC50 under setting [2] is 4.61 µM [rising, full curve, poor fit]. Also, under setting [1], the AC50 is 2.06 µM [falling, partial curve].
